Consider one compound from patent publication US10844027B2, “Carboxylic diarylthiazepineamines as mu-opioid receptor agonists” (THE TRUSTEES OF COLUMBIA UNIVERSITY IN THE CITY OF NEW YORK, priority 2015, dated 2020).

This data set in a line: Brain pharmacokinetics of tianeptine and its 5-carbon metabolite (7i) in mice. The method, then: Brain samples were collected from three mice at 0.08, 0.25, 0.5, 1, 2, 4, 8 and 24 h, homogenized using ice-cold phosphate buffer saline (pH 7.4), and stored below −70° C. until analysis. Total homogenate volume was three times the tissue weight. All samples were processed for analysis by protein precipitation using acetonitrile (ACN) and analyzed with a fit-for-purpose LC/MS/MS method (LLOQ—1.01 ng/mL in brain). Pharmacokinetic parameters were calculated using the non-compartmental analysis tool of Phoenix WinNonlin® (Version 6.3).

The mark [1] stands for this setting: male, C57BL/6, mouse, in vivo, ip, 30 mg/kg.

A word on the Cmax: it is the maximum level reached in the sampled fluid or tissue. The Tmax is the time from dosing to the highest level. With `CN1c2ccccc2C(NCCCCCCC(=O)O)c2ccc(Cl)cc2S1(=O)=O` (stereo not drawn) [Tianeptine, tianeptine, reference compound], the AUClast (brain, C57BL/6 mice, single injection (30 mg/kg, i.p.) of tianeptine) was determined as 351 ng·h/g. Also, under setting [1], the Cmax amounted to 1020 ng/g and the Tmax is 4.8 min.
